Some of the results follow.
compound: C1COCCN1CCN2C3=CC=CC=C3N=C2NC(=O)C4=CC(=CC=C4)[N+](=O)[O-] [IRAK-1-4 Inhibitor I]; test: log2 fold change, soluble protein after heating vs DMSO (PISA); higher = thermal stabilisation; K562 cells, 10 uM, 30 min; active = over 0.2 and 3.5 SD of the protein, either way, in both replicates (recomputed)
Method in brief: (§1)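 K562 cells at 2×10^6 cells/mL were treated with 10 μM compound for 30 min. Aliquots were heated for 3 min across 48°C-58°C, pooled, and extracted in PBS with 0.5% NP-40 at 4°C; soluble protein was the supernatant after 21,000xg for 90 min. Soluble protein was quantified by TMTpro 16plex LC-MS/MS with channel sums equalised, and reported as log2 fold change in thermal stability against DMSO controls, with values from duplicates.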

By UniProt entry, the sequences of proteins in these tests, tags left out. Where a name states a change or a piece, a line headed by the entry shows the natural chain unless it says otherwise.
UniProt P43897: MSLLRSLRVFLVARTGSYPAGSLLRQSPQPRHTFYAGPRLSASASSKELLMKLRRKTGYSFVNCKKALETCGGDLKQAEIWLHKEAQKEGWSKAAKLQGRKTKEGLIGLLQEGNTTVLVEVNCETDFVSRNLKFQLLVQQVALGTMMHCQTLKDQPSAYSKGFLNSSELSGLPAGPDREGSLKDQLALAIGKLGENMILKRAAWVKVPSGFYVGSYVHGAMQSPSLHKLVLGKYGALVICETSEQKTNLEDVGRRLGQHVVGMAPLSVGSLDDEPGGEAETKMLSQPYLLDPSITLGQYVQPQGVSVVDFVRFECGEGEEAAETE
UniProt Q6IBS0: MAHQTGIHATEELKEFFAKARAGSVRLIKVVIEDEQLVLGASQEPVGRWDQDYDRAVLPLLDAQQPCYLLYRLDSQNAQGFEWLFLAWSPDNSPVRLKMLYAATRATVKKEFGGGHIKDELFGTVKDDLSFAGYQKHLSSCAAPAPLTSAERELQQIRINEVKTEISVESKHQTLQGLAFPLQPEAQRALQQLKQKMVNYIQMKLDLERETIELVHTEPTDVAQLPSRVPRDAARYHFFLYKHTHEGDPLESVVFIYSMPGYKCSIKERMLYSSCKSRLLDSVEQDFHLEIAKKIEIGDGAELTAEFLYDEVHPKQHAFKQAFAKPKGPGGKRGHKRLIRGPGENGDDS
UniProt Q9NUQ3: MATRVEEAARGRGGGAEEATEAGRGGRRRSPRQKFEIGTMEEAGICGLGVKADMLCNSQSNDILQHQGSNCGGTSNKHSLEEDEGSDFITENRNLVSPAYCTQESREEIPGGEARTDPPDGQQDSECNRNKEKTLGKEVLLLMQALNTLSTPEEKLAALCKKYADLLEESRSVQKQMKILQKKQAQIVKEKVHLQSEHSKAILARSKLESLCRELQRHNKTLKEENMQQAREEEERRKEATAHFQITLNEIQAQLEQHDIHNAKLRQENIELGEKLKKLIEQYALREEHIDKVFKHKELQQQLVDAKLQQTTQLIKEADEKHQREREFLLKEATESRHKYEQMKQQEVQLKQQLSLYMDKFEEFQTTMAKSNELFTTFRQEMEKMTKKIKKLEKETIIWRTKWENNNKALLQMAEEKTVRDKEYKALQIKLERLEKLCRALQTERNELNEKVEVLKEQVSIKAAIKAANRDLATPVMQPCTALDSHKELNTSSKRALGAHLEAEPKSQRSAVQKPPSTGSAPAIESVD
UniProt Q5BVD1: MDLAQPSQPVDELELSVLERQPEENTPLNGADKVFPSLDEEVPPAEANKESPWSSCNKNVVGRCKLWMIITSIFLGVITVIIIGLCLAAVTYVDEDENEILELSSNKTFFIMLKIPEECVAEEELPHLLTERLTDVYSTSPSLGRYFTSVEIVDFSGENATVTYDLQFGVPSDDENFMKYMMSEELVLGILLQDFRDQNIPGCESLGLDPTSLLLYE
UniProt P26368, whole entry, looked up: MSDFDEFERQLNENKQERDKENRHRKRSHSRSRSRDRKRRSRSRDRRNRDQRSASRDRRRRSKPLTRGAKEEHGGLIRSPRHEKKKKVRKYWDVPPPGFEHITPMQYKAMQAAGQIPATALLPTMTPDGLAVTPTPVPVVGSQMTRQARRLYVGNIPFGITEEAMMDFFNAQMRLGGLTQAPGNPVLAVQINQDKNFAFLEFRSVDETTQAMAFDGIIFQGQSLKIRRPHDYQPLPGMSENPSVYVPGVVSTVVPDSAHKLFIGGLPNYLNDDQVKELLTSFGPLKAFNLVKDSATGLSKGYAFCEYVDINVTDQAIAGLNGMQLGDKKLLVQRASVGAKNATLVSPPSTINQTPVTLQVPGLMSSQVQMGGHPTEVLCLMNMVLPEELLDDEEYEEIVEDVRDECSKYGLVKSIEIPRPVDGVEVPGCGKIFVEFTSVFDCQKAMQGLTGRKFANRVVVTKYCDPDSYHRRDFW
UniProt Q969E8: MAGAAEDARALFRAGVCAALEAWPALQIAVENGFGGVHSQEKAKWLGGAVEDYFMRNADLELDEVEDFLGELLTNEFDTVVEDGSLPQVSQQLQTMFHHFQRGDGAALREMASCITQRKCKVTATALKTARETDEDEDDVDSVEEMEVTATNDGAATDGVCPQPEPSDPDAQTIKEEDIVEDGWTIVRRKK
UniProt Q8NG11: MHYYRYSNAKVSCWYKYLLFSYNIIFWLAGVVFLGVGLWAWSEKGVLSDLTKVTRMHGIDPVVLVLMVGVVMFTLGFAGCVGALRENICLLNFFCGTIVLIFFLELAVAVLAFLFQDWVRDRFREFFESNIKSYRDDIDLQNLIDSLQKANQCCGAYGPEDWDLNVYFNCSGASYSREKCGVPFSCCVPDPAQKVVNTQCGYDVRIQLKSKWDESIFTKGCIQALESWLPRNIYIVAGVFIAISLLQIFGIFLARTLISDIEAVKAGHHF
UniProt Q9Y385: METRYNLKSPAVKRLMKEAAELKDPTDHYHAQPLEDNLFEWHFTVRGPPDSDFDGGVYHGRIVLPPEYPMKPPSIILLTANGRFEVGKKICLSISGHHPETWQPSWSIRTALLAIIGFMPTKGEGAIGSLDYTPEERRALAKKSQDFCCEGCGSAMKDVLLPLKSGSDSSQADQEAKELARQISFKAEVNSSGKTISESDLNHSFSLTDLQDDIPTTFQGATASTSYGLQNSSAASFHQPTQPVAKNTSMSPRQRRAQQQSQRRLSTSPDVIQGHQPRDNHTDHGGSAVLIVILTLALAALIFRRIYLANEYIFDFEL
UniProt P63279, whole entry, looked up: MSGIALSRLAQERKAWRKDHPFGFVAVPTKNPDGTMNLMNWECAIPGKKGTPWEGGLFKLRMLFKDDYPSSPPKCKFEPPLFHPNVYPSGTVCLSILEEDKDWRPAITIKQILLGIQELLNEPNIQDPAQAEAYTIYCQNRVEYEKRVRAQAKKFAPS
UniProt Q14157: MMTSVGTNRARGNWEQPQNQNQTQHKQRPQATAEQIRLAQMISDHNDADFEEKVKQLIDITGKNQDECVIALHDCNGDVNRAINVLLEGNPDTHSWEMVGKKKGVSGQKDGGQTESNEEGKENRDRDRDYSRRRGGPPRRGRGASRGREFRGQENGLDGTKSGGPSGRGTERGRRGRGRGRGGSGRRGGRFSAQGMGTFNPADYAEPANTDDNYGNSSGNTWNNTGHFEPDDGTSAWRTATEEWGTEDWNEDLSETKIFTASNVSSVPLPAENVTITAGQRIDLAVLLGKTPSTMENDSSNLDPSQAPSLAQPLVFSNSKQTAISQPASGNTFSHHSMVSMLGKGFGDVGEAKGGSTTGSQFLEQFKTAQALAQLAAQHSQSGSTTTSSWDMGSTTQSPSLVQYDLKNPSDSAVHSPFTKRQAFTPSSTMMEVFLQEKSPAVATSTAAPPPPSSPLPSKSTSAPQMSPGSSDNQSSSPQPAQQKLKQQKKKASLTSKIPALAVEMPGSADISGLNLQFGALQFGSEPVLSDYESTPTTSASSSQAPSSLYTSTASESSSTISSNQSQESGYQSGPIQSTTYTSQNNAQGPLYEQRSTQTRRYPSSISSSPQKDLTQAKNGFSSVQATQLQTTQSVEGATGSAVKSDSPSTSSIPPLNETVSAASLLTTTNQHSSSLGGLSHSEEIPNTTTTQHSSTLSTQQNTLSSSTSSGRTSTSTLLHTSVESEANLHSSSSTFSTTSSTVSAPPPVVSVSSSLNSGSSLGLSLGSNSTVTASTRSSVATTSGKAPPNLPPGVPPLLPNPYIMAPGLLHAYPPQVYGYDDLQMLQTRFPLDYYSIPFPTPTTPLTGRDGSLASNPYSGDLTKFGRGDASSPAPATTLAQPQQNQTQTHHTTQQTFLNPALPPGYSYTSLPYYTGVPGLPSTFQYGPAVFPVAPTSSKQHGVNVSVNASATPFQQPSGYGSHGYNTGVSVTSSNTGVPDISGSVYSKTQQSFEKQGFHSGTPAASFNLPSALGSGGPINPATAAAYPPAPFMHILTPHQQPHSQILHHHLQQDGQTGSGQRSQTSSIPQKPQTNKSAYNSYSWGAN
UniProt O43396: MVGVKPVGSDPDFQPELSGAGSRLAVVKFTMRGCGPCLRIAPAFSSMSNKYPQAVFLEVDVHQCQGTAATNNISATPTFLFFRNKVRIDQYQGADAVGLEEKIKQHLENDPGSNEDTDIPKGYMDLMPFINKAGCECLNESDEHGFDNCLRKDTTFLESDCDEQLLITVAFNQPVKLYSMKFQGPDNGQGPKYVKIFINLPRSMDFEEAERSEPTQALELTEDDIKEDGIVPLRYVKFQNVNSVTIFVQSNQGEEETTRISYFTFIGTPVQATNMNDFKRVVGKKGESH
UniProt Q99816: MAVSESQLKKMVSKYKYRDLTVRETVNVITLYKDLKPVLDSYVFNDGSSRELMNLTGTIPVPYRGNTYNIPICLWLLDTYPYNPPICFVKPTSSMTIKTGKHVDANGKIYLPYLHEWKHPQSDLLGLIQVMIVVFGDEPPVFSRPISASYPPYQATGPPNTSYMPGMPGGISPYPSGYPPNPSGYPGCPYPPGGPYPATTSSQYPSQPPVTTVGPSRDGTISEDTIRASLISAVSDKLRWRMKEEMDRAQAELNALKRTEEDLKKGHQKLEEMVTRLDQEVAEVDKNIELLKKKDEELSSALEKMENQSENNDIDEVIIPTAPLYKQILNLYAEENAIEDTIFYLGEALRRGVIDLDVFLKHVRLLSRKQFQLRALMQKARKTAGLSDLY
UniProt P68363, whole entry, looked up: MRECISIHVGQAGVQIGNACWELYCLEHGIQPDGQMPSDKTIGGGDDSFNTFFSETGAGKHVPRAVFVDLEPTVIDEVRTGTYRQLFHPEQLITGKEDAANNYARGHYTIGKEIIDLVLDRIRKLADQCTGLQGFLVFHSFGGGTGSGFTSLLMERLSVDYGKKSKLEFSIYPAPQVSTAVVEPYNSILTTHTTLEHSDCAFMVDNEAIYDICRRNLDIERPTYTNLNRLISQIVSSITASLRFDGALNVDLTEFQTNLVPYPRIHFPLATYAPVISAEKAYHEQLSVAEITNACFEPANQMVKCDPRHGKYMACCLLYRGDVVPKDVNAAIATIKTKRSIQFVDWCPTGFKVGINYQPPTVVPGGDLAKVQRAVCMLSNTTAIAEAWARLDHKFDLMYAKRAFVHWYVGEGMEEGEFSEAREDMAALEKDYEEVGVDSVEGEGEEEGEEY
UniProt P62253: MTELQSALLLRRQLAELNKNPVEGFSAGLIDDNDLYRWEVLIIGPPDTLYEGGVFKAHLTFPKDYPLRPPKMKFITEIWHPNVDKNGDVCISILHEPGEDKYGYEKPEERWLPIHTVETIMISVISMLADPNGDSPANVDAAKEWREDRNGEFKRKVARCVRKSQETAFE
UniProt Q99757: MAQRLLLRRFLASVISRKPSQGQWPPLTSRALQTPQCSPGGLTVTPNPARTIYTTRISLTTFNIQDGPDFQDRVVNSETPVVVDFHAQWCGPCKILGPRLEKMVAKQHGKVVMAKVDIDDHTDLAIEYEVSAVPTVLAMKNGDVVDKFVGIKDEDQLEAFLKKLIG
UniProt P22314: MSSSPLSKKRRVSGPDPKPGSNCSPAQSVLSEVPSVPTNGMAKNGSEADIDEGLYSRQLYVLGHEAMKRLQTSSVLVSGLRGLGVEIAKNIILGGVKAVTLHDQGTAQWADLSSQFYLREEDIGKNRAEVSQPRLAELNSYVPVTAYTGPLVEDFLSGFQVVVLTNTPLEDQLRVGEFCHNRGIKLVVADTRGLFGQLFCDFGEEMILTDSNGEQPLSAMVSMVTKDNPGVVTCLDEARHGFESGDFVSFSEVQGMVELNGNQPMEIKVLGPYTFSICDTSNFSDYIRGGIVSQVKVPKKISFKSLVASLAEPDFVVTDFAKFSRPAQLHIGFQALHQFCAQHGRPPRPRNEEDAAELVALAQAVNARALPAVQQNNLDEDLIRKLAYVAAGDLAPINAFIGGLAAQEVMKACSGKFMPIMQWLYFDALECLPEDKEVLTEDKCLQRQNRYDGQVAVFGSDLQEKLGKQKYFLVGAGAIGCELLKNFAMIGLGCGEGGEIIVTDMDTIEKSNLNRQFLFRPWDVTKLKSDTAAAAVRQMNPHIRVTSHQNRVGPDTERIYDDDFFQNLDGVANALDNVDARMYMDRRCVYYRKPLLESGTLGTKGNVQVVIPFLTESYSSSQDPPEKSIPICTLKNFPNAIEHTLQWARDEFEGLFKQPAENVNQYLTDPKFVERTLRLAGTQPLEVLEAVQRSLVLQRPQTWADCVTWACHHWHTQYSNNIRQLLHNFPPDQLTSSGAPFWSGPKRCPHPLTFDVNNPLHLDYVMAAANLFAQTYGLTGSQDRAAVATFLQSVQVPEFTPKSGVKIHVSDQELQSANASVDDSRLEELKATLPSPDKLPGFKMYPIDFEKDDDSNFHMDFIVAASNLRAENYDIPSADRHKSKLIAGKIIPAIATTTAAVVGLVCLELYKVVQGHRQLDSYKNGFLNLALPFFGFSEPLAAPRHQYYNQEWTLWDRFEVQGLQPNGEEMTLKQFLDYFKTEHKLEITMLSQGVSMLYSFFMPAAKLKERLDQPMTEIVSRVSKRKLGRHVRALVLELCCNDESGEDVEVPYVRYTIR

Row | Target | log2 fold change
1 | TSFM (UniProt P43897) | inactive: -0.065
2 | TWF2 (UniProt Q6IBS0) | inactive: 0.012
3 | TXLNG (UniProt Q9NUQ3) | inactive: 0.034
4 | TTMP isoform 3 (UniProt Q5BVD1) | inactive: 0.083
5 | TTN isoform 12 (UniProt Q8WZ42) | inactive: 0.035
6 | U2AF2 (UniProt P26368) | inactive: -0.069
7 | TSR2 (UniProt Q969E8) | inactive: 0.091
8 | TUFM (UniProt P49411) | inactive: 0.091

compound: C=CC(=O)N1CCC[C@@H](n2nc(-c3ccc(Oc4ccccc4)cc3)c3c(N)ncnc32)C1 [ibrutinib]; test: as above
Method in brief: as §1

Row | Target | log2 fold change
9 | TSPAN14 (UniProt Q8NG11) | inactive: 0.007
10 | UBE2J1 (UniProt Q9Y385) | inactive: 0.013
11 | UBE2H (UniProt P62256) | inactive: -0.05
12 | TUBA1C (UniProt Q9BQE3) | inactive: 0.058
13 | UBE2I (UniProt P63279) | inactive: 0
14 | UBAP2L isoform 1 (UniProt Q14157) | inactive: -0.006
15 | TTPAL (UniProt Q9BTX7) | inactive: 0.076
16 | TXNRD1 (UniProt Q16881) | inactive: -0.035
17 | TXNL1 (UniProt O43396) | inactive: -0.014
18 | TTC27 (UniProt Q6P3X3) | inactive: -0.135
19 | TTI2 (UniProt Q6NXR4) | inactive: -0.006
20 | UAP1L1 (UniProt Q3KQV9) | inactive: -0.008
21 | TXNIP (UniProt Q9H3M7) | inactive: 0.016
22 | UBAP1 isoform 4 (UniProt Q9NZ09) | inactive: 0.07
23 | UBAP2L isoform 5 (UniProt Q14157) | inactive: 0.04
24 | TSG101 (UniProt Q99816) | inactive: 0.004

Row | Target | log2 fold change
25 | TUBA1B (UniProt P68363) | inactive: -0.001
26 | UBA52 (UniProt P62987) | inactive: 0.091
27 | UBE2G1 (UniProt P62253) | inactive: -0.027
28 | TYW1 (UniProt Q9NV66) | inactive: -0.043
29 | TXN2 (UniProt Q99757) | inactive: 0.021
30 | UBA1 (UniProt P22314) | inactive: -0.058
31 | UBA6 | inactive: -0.01
32 | TUBB3 (UniProt Q13509) | inactive: 0.054
33 | TSFM (UniProt P43897) | inactive: -0.134
34 | TWF2 (UniProt Q6IBS0) | inactive: -0.029
35 | TXLNG (UniProt Q9NUQ3) | inactive: -0.013
36 | TTMP isoform 3 (UniProt Q5BVD1) | inactive: 0.015
37 | TTN isoform 12 (UniProt Q8WZ42) | inactive: 0
38 | U2AF2 (UniProt P26368) | inactive: 0.029
39 | TSR2 (UniProt Q969E8) | inactive: 0.019
40 | TUFM (UniProt P49411) | inactive: 0.035

compound: CC(=O)c1cnc2ccc(-c3cc(Cl)c(O)c(Cl)c3)nc2c1N[C@H]1CC[C@H](CN(C)C)CC1; test: as above
Method in brief: as §1

Row | Target | log2 fold change
41 | TSPAN14 (UniProt Q8NG11) | inactive: -0.032
42 | UBE2J1 (UniProt Q9Y385) | inactive: -0.077
43 | UBE2H (UniProt P62256) | inactive: -0.05
44 | TUBA1C (UniProt Q9BQE3) | inactive: 0.016
45 | UBE2I (UniProt P63279) | inactive: 0.023
46 | UBAP2L isoform 1 (UniProt Q14157) | inactive: 0.007
47 | TTPAL (UniProt Q9BTX7) | inactive: -0.044
48 | TXNRD1 (UniProt Q16881) | inactive: -0.062
49 | TXNL1 (UniProt O43396) | inactive: -0.001
50 | TTC27 (UniProt Q6P3X3) | inactive: 0.062
51 | TTI2 (UniProt Q6NXR4) | inactive: 0.005
52 | UAP1L1 (UniProt Q3KQV9) | inactive: -0.005
53 | TXNIP (UniProt Q9H3M7) | inactive: -0.053
54 | UBAP1 isoform 4 (UniProt Q9NZ09) | inactive: -0.001
55 | UBAP2L isoform 5 (UniProt Q14157) | inactive: 0.017
56 | TSG101 (UniProt Q99816) | inactive: -0.017

Row | Target | log2 fold change
57 | TUBA1B (UniProt P68363) | inactive: 0.002
58 | UBA52 (UniProt P62987) | inactive: 0.21
59 | UBE2G1 (UniProt P62253) | inactive: 0.023
60 | TYW1 (UniProt Q9NV66) | inactive: -0.096
61 | TXN2 (UniProt Q99757) | inactive: 0.072
62 | UBA1 (UniProt P22314) | inactive: -0.047
63 | UBA6 | inactive: -0.009
64 | TUBB3 (UniProt Q13509) | inactive: 0.032
65 | TSFM (UniProt P43897) | inactive: -0.067
66 | TWF2 (UniProt Q6IBS0) | inactive: -0.003
67 | TXLNG (UniProt Q9NUQ3) | inactive: -0.063
68 | TTMP isoform 3 (UniProt Q5BVD1) | inactive: 0.012
69 | TTN isoform 12 (UniProt Q8WZ42) | inactive: -0.086
70 | U2AF2 (UniProt P26368) | active: -0.313
71 | TSR2 (UniProt Q969E8) | inactive: -0.052
72 | TUFM (UniProt P49411) | inactive: -0.139

— the supplement of paper PMC10849652
